Source: patent US7842700B2, “Crystals of isopropyl ester of N-(2,6-dichlorobenzoyl)-4-[6-(methylamino)methyl-1-methyl-2,4-dioxo-1,4-dihydroquinazoline-3(2H)-yl]-L-phenylalanine hydrochloride, production method thereof and use thereof” (Ajinomoto Co., Inc., priority 2005, dated 2010)
Some entries share one result that the patent states for a list of compounds.

Test: Vapor adsorption isotherms (water adsorption amount)
Type: physicochemical
Details: 100% relative humidity, after vacuum drying at 50° C. overnight

For `CNCc1ccc2c(c1)c(=O)n(-c1ccc(C[C@H](NC(=O)c3c(Cl)cccc3Cl)C(=O)OC(C)C)cc1)c(=O)n2C` [crystal form Cl5], which water adsorption amount is on record?
Its water adsorption amount is no more than 4%.
